Assay [1] deals with GST-CD36 of the GST pull-down for STAT3, pSTAT3, ERK1/2 and pERK1/2 (Fig. 4C) (human) (UniProt P16671). The assay can be described thus: pull-down; GST pull-down with CD36 in MCF-7 and MDA-MB-468 cells, blotted for STAT3, pSTAT3 (Y705), ERK1/2 and pERK1/2 (Thr202/Tyr204); bacterial or mammalian GST-CD36 not stated.
Assay [2] concerns the target CD36 in MCF-7 and MDA-MB-468 cell lysate (human) (UniProt P16671). The assay can be described thus: co-IP; CD36 antibody (2 ug) coupled to AminoLink Plus resin; pre-cleared lysate (500 ug total protein) of MCF-7 and MDA-MB-468 cells, overnight at 4 °C; non-denaturing and denaturing immunoprecipitation; western blot for FABP4.
The target of assay [3] is GST-tagged CD36 (full human CD36 cDNA in pGEX-4T-3) (human) (UniProt P16671). The assay is described as follows: pull-down; GST-tagged CD36 purified from BL21 mixed with proteins from control, CD36-expressing and CD36-knockout MCF-7 and MDA-MB-468 cells (with/without adipocyte co-culture), 4 °C for 4 h with rotating; eluate blotted with anti-FABP4 antibody; only the target purified.

The chains behind the UniProt entries cited, without tags or fusion partners.
UniProt P16671: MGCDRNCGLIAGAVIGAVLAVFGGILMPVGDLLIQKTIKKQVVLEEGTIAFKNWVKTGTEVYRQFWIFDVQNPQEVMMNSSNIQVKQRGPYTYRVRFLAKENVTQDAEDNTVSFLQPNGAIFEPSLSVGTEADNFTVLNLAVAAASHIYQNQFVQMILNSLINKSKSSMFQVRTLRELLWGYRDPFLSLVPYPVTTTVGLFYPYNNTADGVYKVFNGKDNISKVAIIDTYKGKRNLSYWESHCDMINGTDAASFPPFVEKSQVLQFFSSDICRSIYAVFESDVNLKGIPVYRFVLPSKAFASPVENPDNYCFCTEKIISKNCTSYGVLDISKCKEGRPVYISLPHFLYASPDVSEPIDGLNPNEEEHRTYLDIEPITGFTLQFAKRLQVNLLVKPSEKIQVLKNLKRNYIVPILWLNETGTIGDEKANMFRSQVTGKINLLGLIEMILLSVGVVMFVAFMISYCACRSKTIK
UniProt P27361: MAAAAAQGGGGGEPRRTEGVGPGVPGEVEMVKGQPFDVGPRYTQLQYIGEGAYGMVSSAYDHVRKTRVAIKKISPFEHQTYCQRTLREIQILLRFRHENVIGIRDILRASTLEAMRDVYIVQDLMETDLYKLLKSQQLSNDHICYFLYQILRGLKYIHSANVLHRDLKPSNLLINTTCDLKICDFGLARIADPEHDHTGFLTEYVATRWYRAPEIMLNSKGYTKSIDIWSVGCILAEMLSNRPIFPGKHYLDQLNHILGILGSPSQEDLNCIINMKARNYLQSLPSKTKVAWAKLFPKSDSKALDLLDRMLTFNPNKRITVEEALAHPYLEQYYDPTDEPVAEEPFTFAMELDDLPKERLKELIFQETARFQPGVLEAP
UniProt P15090: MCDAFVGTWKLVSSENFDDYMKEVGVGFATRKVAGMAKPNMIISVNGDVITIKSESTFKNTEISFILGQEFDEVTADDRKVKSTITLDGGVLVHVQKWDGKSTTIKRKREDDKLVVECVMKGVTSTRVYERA
UniProt P40763: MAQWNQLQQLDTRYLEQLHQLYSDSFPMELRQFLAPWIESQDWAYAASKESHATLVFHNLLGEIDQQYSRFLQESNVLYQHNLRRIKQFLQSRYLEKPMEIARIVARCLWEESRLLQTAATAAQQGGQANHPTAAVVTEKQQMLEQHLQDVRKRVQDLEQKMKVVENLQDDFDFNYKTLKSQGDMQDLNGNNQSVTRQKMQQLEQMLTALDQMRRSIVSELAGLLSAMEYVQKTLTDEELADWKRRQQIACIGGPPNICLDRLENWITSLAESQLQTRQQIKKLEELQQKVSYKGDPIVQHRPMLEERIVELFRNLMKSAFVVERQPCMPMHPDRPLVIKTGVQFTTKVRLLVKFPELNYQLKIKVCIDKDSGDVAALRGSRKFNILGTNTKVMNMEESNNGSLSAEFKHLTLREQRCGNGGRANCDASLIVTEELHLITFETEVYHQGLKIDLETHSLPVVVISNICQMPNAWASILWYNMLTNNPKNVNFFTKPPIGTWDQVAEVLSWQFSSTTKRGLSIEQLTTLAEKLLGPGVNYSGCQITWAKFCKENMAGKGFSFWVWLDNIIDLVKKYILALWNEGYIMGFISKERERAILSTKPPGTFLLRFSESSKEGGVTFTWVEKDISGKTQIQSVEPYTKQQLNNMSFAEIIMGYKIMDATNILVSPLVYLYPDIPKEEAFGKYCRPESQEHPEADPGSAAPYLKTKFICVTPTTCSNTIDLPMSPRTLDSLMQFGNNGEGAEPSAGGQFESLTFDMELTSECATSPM

These are yes or no findings as the source states them, for the method shown. Binding seen in cells or lysates may run through a third protein. Some binding calls cover weakened binding; strength is not graded here.

“ERK1 (of ERK1/2) (from UniProt P27361 1-379)”: the binding result in assay [1] is recorded as “no binding”.

As to FABP4 (from UniProt P15090 1-132), the binding result in assay [2] and in assay [3] was “binds” in each case. With STAT3 (from UniProt P40763 1-770), in assay [1], the binding result is given as “binds”. Consider “pERK1 (of pERK1/2 (Thr202/Tyr204)) (from UniProt P27361 1-379)”, for which the binding entry in assay [1] was “no binding”. For the substance “pSTAT3 (Y705) (from UniProt P40763 1-770)”, in assay [1], the binding entry was “binds”.

Source of the values: article PMC8463699.
